We go through two molecules from article PMC7281231.

Results are given in words; binding and its absence hold for the method and conditions named. In cells and extracts the contact can be indirect. Binding can be weak; no strength is given. Where a sequence is shown, tags or fusion partners need not be part of it.

For test [1], the target named is T1, IKBKB with Myc tag (IKBKB-Myc) (UniProt O14920).
T1 sequence: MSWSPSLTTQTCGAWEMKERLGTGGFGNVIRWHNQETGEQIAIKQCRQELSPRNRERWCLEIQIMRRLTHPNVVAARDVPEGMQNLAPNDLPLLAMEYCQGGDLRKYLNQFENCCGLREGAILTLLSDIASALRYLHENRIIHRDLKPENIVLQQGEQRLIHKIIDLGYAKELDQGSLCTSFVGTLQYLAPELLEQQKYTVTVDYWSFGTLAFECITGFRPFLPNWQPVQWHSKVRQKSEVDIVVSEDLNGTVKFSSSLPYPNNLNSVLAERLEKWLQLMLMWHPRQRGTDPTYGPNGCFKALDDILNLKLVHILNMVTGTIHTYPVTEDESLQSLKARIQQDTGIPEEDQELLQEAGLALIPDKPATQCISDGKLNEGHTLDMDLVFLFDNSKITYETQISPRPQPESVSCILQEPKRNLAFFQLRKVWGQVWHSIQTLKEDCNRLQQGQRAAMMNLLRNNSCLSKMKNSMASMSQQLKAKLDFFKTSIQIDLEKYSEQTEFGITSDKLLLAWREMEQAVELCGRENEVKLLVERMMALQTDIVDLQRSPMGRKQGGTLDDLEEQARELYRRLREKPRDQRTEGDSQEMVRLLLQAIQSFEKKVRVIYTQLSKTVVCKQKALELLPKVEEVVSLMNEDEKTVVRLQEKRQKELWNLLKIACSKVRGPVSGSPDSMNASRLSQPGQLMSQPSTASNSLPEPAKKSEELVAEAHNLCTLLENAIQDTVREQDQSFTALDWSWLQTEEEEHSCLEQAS
The test is described as follows: co-IP; HEK293T cells co-transfected with the two plasmids, lysed at 24 hpt in IP lysis buffer; cleared lysates with anti-Myc agarose overnight at 4 °C; washed with TBST (25 mM Tris-HCl, 0.15 M NaCl, 0.05% tween 20, pH 7.2); blots with anti-Flag, anti-HA and anti-Myc.

The target in test [2] is PEDV ORF3 with Myc tag (ORF3-Myc) (porcine epidemic diarrhea virus (PEDV)). Described as above.

In the case of “PEDV ORF3 with Flag tag (ORF3-Flag) (porcine epidemic diarrhea virus (PEDV))”, in test [1], the binding entry is listed as “binds”.

B1: inhibitor of nuclear factor kappa-B kinase subunit beta with Flag-tag at the C-terminus (IKBKB-Flag) (enzyme, UniProt O14920 1-756)
chain: T1 sequence
Consider B1, for which the binding entry in test [2] was “binds”.
